Laboratory results reported in PubChem BioAssay AID504834 (National Center for Advancing Translational Sciences (NCATS), 2011).
In all, about 320,000 compounds went through this assay and about 22,000 (6.9%) were called active. The inconclusive results got no clear call from the source; some entries with a clear call stand among them for comparison. Calls follow the shape of the dose curve; as a rule, active = well fitted inhibition curve with a large enough effect; inconclusive = small, poorly fitted or top-dose-only effect, or another doubt; inactive = no such curve, though single readings can be large or run the other way. Potencies of inconclusive entries are doubtful fits and often do not repeat.

Assay: Primary qHTS for delayed death inhibitors of the malarial parasite plastid, 96 hour incubation
Conditions: P. falciparum luciferase reporter growth; series mostly up to 28.7 µM; activity change, negative = inhibition: at the top concentration
Summary of the method: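 Infected RBCs, 2% Hct / 0.05% parasitemia final; luciferase-reporter P. falciparum; cpd 96 h, 37 C, 5% CO2; luciferase detection reagent; luminescence.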
% is scaled to controls: 0 for no effect and ±100 for the full control effect; potency is read from the fitted curve at half-maximal effect.

Structure (SMILES)	Potency	activity change, negative = inhibition
Cc1[nH]c2ccccc2c1C(=O)CN1CCN(C/C=C/c2ccccc2)CC1	inconclusive: 3.7 µM [inhibitor, full curve]	
CCOC(=O)CSc1nc2cc(S(=O)(=O)N3CCOCC3)ccc2n1CC	inconclusive: 18.5 µM [inhibitor, single point]	
O=C(O)C1CCN(S(=O)(=O)c2cccs2)CC1	inconclusive: 9.28 µM [inhibitor, partial curve, poor fit]	
COc1ccc(/C=N/NC(=O)CCn2cnc(-c3ccccc3)c2-c2ccccc2)cc1		inactive: -25.3%
O=C(/C=C/c1cccc(Cl)c1)c1ccc([N+](=O)[O-])o1	inconclusive: 13.1 µM [inhibitor, partial curve]	
Fc1ccc(Cc2nnc(-c3cccs3)o2)cc1	inconclusive: 18.5 µM [inhibitor, single point]	
C1CCCCCC(=NNc2nn[nH]n2)CCCCC1		inactive: 1.89%
Cc1cc(N2CCCCC2)nc2c(C)cccc12		inactive: 0%
O=C(Nc1ccccc1F)c1ccc2snnc2c1		inactive: -7.27%
O=C(Nc1nc(-c2cccs2)cs1)c1cccc(S(=O)(=O)N2CCCCC2)c1	inconclusive: 9.28 µM [inhibitor, partial curve, poor fit]	
COc1ccc(NC(=O)C2CCN(S(=O)(=O)c3cccs3)CC2)cc1OC	inconclusive: 5.22 µM [inhibitor, partial curve]	
CC1CCCN(S(=O)(=O)c2ccc3c(c2)n(C)c(=O)c(=O)n3C)C1 (stereo not given)		inactive: -13.2%
O=C(CC(c1ccccc1)c1ccccc1)N1CCN(c2ccccn2)CC1	inconclusive: 1.47 µM [inhibitor, full curve]	
O=[N+]([O-])c1ccc(-n2cccn2)c(-c2nn[nH]n2)c1	inconclusive: 18.5 µM [inhibitor, single point]	
COC(=O)c1sccc1NC(=O)Nc1cccc(Cl)c1Cl		inactive: 77%
O=C(NC(c1ccccc1)c1ccccc1)c1ccc(CO)cc1	inconclusive: 10.4 µM [inhibitor, single point]	
Cc1cc(Cl)ccc1C(=O)C1CCCN(Cc2ccon2)C1 (stereo not given)	inconclusive: 14.7 µM [inhibitor, single point]	
O=C(COc1ccccc1)N=C1SC2CS(=O)(=O)CC2N1c1ccccc1 (stereo not given)		inactive: 0%
Cc1ccc(-c2csc(N(Cc3ccccc3)C(=O)COc3ccccc3)n2)cc1		inactive: 41.8%
COc1cc(OC)cc(N(C(=O)c2ccco2)C(C(=O)NC2CCCC2)c2ccc(N3CCOCC3)cc2)c1 (stereo not given)		inactive: -15.5%
CCN1CCN(C(=O)CCNC(=O)Cn2ccc3ccccc3c2=O)CC1	inconclusive: 16.5 µM [inhibitor, partial curve, poor fit]	
O=C(NCc1ccc(Cl)cc1)c1ccc(CNc2c(N3CCOCC3)c(=O)c2=O)cc1	inconclusive: 18.5 µM [inhibitor, single point]	
CCc1ccc(N=c2c([N+](=O)[O-])nn(-c3ccc4c(c3)OCCO4)n2O)cc1	inconclusive: 4.15 µM [inhibitor, single point]	

Structure (SMILES)	Potency	activity change, negative = inhibition
CC(C)Cn1cc(C(=O)NCCCOC(C)C)c2c3ccccc3n(C)c2c1=O	inconclusive: 9.28 µM [inhibitor, partial curve, poor fit]	
COc1ccc(CCC(=O)NC2CCCCC2)cc1	active: 14.7 µM	
COC(=O)N/N=C/c1cc(N=Nc2ccccc2)ccc1O	inconclusive: 4.15 µM [inhibitor, partial curve, poor fit]	
COc1ccccc1NC(=O)CSc1nnc2ccc(-c3ccccn3)nn12	inconclusive: 0.586 µM [inhibitor, full curve, poor fit]	
CCOC(=O)CSc1nnc(NC(=O)c2cccc([N+](=O)[O-])c2)s1	active: 11.7 µM	
CCOC(=O)c1ccc(NC(=O)CSc2nccn2C)cc1		inactive: 10.3%
Cc1cc(N/N=C/c2cccc([N+](=O)[O-])c2)nc(-n2nc(C)cc2C)n1	active: 1.04 µM	
O=C(Nc1nnc(SCc2c(Cl)cccc2Cl)s1)C1CC(=O)N(c2ccc3c(c2)OCCO3)C1 (stereo not given)	inconclusive: 0.0828 µM [inhibitor, full curve, poor fit]	
OCCNCCc1c[nH]c2ccc(OCc3ccccc3)cc12	inconclusive: 10.4 µM [inhibitor, single point]	
CCCc1ccc(S(=O)(=O)NCc2nnc(SC)n2C)cc1	inconclusive: 4.65 µM [inhibitor, partial curve]	
COCCNC(=O)c1cc2c(=O)[nH]c3ccccc3c2s1	active: 1.17 µM	
CC(=O)N1CC(=O)Nc2ccc(Cl)cc2C1c1ccc(F)cc1 (stereo not given)	inconclusive: 11.7 µM [inhibitor, partial curve, poor fit]	
Fc1ccc(NC(=S)Nc2cc(Cl)ccc2Cl)cc1		inactive: 63.3%
O=C(NC(=S)N1CCN(c2nc(-c3ccccc3)cs2)CC1)c1cccnc1	inconclusive: 18.5 µM [inhibitor, single point]	
CCC(=O)Nc1cccc2c1C(=O)N(C)C2=O	inconclusive: 18.5 µM [inhibitor, single point]	
O=C(Nc1ccc2c(c1)oc1ccccc12)c1ccncc1	inconclusive: 0.828 µM [inhibitor, full curve, poor fit]	
CCN(CC)S(=O)(=O)c1cccc(NC(=O)CCNC(=O)NC23CC4CC(CC(C4)C2)C3)c1	inconclusive: 2.94 µM [inhibitor, full curve, poor fit]	
O=C(O)c1cc(-c2ccc(/C=c3\sc4nc5ccc(Br)cc5n4c3=O)o2)ccc1Cl	inconclusive: 18.5 µM [inhibitor, single point]	
O=C(CCCc1nc(-c2ccccc2Cl)no1)NCc1cccnc1	inconclusive: 10.4 µM [inhibitor, single point]	
CC(=O)NC(c1ccco1)c1cc(Br)c2cccnc2c1O (stereo not given)	inconclusive: 18.5 µM [inhibitor, single point]	
O=C(Cc1ccc(S(=O)(=O)N2CCOCC2)s1)Nc1ccccc1N1CCCC1	inconclusive: 20.8 µM [inhibitor, single point]	
CN(c1ccccc1)S(=O)(=O)c1cc(Cl)ccc1Cl	inconclusive: 9.28 µM [inhibitor, single point]	

By substructure, the compounds so far containing a COOH group
Structure (SMILES)	Potency	activity change, negative = inhibition
O=C(O)C1CCN(S(=O)(=O)c2cccs2)CC1	inconclusive: 9.28 µM [inhibitor, partial curve, poor fit]	
O=C(O)c1cc(-c2ccc(/C=c3\sc4nc5ccc(Br)cc5n4c3=O)o2)ccc1Cl	inconclusive: 18.5 µM [inhibitor, single point]	
